PubChem BioAssay AID602196, INSERM | 2012

Purpose: 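Modifiers of cisplatin sensitivity in A549 cells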
Cells: human A549 lung cancer cells
Reagent: siRNA pair against human genes
Timing: 48 h transfection before cisplatin; time from cisplatin to read-out not stated
Challenge: cisplatin at a dose killing half of control-siRNA cells; exact dose and duration not given
Measured: 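Cisplatin cell death as a shift from the 50% death seen with control siRNA; siRNAs toxic or growth-blocking alone scored 0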
Reading the numbers: two-siRNA summed score (-2 to +2): higher = both siRNAs protect from cisplatin killing; -2 means both sensitise
Hit rule: 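Each siRNA scores 0 if harmful alone by LDH or WST-1, otherwise +1 if it reduces and -1 if it increases cisplatin killing; a gene is active when both siRNAs agree (sum +2 or -2)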
Calls: active = both siRNAs shift cisplatin killing the same way; inactive = no consistent shift, or siRNA harmful alone
The deposit covers about 23,000 reagents; this is an unselected part. Over the whole deposit, 455 (2%) are marked active. 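Active includes both protection and sensitisation; some change values fall well beyond the stated -50 to +50 range.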 Reagents against one gene are numbered here. Further read-outs or replicates are left out here. Not given: the amount of reagent.

two-siRNA summed score (-2 to +2)	call	Gene	reagent no.
0	inactive	LIPF	1
1	inactive	LOC389347	1
-1	inactive	TAS2R46	1
0	inactive	PRPH2	1
1	inactive	LINC00692	1
0	inactive	LINC02483	1
0	inactive	RASGRP3	1
-1	inactive	GOLGB1	1
0	inactive	CTNNAL1	1
0	inactive	RBM3	1
0	inactive	RBM3	2
0	inactive	TMEM63C	1
1	inactive	LOC401584	1
0	inactive	LOC389342	1
0	inactive	LOC441953	1
0	inactive	SHANK3	1
-1	inactive	SDK1	1
1	inactive	NOL6	1
1	inactive	TFAP2D	1
1	inactive	RAB43	1
0	inactive	LOC440604	1
-1	inactive	CPT1B	1
0	inactive	LOC286187	1
0	inactive	ASCC1	1
0	inactive	LOC440175	1
0	inactive	TAF6L	1

Looked up above:
Value for TFAP2D in “two-siRNA summed score (-2 to +2)”: 1
Under “call”, GOLGB1 has inactive
Value of TAF6L in “call”: inactive
LINC02483, two-siRNA summed score (-2 to +2) = 0

More entries follow.
two-siRNA summed score (-2 to +2)	call	Gene	reagent no.
0	inactive	PCMTD2	1
1	inactive	LOC442748	1
0	inactive	APBB3	1
0	inactive	LY6D	1
0	inactive	B3GLCT	1
0	inactive	LOC440889	1
0	inactive	SLC7A13	1
-1	inactive	JPH3	1
0	inactive	ZAN	1
0	inactive	NXPE3	1
1	inactive	AGPAT2	1
0	inactive	MS4A15	1
0	inactive	ADAMTS20	1
-1	inactive	NIM1K	1
0	inactive	LOC123103	1
-1	inactive	ZP4	1
0	inactive	FUNDC2	1
0	inactive	LOC440772	1
0	inactive	TIMM8A	1
-1	inactive	GALR1	1
1	inactive	RNF185	1
0	inactive	LOC391738	1
0	inactive	FEM1B	1
0	inactive	NDN	1
-1	inactive	FLJ31132	1
0	inactive	CST11	1
0	inactive	CHMP2A	1
0	inactive	LOC159170	1
0	inactive	GLYATL1	1
0	inactive	CPLANE2	1
0	inactive	OR2L3	1
